Test results from PubChem BioAssay AID504444 (National Center for Advancing Translational Sciences (NCATS), 2011).
Out of some 360,000 compounds screened, about 7,500 (2.1%) were called active. Inconclusive results, whose numbers are uncertain, are shown with a selection of clear calls. Calls follow the shape of the dose curve; as a rule, active = well fitted inhibition curve with a large enough effect; inconclusive = small, poorly fitted or top-dose-only effect, or effect the other way; inactive = flat fitted curve, though single readings scatter. Potencies of inconclusive entries are doubtful fits and often do not repeat.

test: Nrf2 qHTS screen for inhibitors; settings: A549 ARE-Fluc reporter, luciferase luminescence, 18-24 h; activity change, negative = inhibition: at 46 µM (top of the series); also: nearly all actives have a fitted effect of over 60% in size
Outline: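 Nrf2 activity is the BugLite luminescence, read 15 min after reagent at room temperature, following CellTiter-Fluor cytotoxicity readout (30 min, 37C). Compound titrations were applied for 18-24 h to 5000 A549 ARE_Fluc cells/well in 5% FBS OPTI-MEM.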
% is scaled to controls: 0 for no effect and ±100 for the full control effect; potency is read from the fitted curve at half-maximal effect.

Compound	Potency	activity change, negative = inhibition
CCN(CC(=O)NCc1ccc(Cl)cc1)C(=O)c1ccc2cc(OC)ccc2c1	inconclusive: 20.6 µM [falling, partial curve]	–
O=c1[nH]c(=O)n(C2C[C@H](O)[C@@H](CO)O2)cc1C(F)(F)F (some centres not stated)	inconclusive: 13 µM [falling, partial curve, poor fit]	–
CCOc1ccc2nc(NC(=O)c3ccc(S(=O)(=O)N4CCOCC4)cc3)sc2c1	inconclusive: 20.6 µM [falling, single point]	–
Cc1ccc(CNc2nc3ccccc3n2C)o1	inconclusive: 16.4 µM [activator, partial curve, poor fit]	–
Cc1cccnc1NC(=O)c1ccc(OCC2CCCO2)cc1 (configuration not stated)	inconclusive: 7.31 µM [activator, partial curve, poor fit]	–
Cc1ccc(-c2csc3ncnc(NS(=O)(=O)c4ccc(Cl)cc4)c23)cc1	inconclusive: 32.6 µM [falling, single point]	–
COCCNCC(O)CON=C1c2ccccc2-c2ccccc21 (configuration not stated)	–	inactive: -19.7%
CCOC(=O)c1ccc(NC(=O)c2ccc(CN3CCc4ccccc4C3)cc2)cc1	active: 23.1 µM	–
O=S(=O)(c1ccccc1C(F)(F)F)N1CCN(S(=O)(=O)c2ccccc2C(F)(F)F)CC1	–	inactive: 7.99%
CCc1cc2c3c(c(=O)oc2cc1O)CCCC3	–	inactive: 25.5%
CC(=O)c1ccc(NC(=S)Nc2ccc(N3CCOCC3)cc2)cc1	inconclusive: 32.6 µM [activator, single point]	–
COc1ccc2c(c1)c1c(c(=O)n(CCc3ccccc3)c(=O)n1Cc1ccc(Cl)cc1)n2C	inconclusive: 13 µM [activator, partial curve, poor fit]	–
O=C(NCC(F)(F)F)Nc1nnc(C(F)(F)F)s1	inconclusive: 18.4 µM [falling, partial curve, poor fit]	–
Clc1ccc2c(N/N=C/c3ccccc3Br)ccnc2c1	active: 10.3 µM	–
O=C(Nc1ccc(S(=O)(=O)N2CCOCC2)cc1)c1ccc2ncsc2c1	inconclusive: 20.6 µM [activator, single point]	–
Cc1cc(NC(=O)c2ccc3c(c2)OCO3)no1	–	inactive: -16.8%
COc1ccc(C(CNC(=O)c2cccc(S(=O)(=O)Nc3ccc(Br)cc3)c2)N(C)C)cc1 (configuration not stated)	–	inactive: 12.8%
CC1CCN(C(=O)COC(=O)/C=C/c2ccco2)CC1	inconclusive: 29.1 µM [activator, single point]	–
O=C(CN1CCN(c2ccccn2)CC1)Nc1cccc(S(=O)(=O)N2CCOCC2)c1	inconclusive: 16.4 µM [falling, single point]	–
Cc1cccn2c(=O)c(/C=C(\C#N)S(=O)(=O)c3ccccc3)c(N3CCCCC3)nc12	inconclusive: 29.1 µM [falling, single point]	–
CCOc1ccc(OCCn2c(SCC(=O)O)nc3ccccc32)cc1	inconclusive: 25.9 µM [falling, single point]	–
O=C(Nc1nccs1)c1cncc(Br)c1	inconclusive: 2.91 µM [activator, partial curve]	–
NNC(=O)c1cc2sccc2s1	inconclusive: 0.0058 µM [activator, full curve, poor fit]	–

Compound	Potency	activity change, negative = inhibition
CCN(CC)S(=O)(=O)c1cc(C(=O)Nc2cc(Cl)ccc2N2CCN(C)CC2)ccc1Cl	inconclusive: 5.17 µM [falling, partial curve, poor fit]	–
CN(c1ccccc1)S(=O)(=O)c1cccc(C(=O)NNC(=O)c2ccccc2)c1	inconclusive: 23.1 µM [falling, partial curve, poor fit]	–
CCOC(=O)c1sc(NC(=O)Nc2ccccc2Cl)cc1C	inconclusive: 29.1 µM [activator, single point]	–
C=CCN1C(C(=O)c2ccccc2)=C(OC(=O)COc2ccccc2)c2ccccc2S1(=O)=O	inconclusive: 32.6 µM [falling, single point]	–
CCc1ccc(-c2nc(CS(=O)CC(=O)NC3CC3)c(C)o2)cc1 (configuration not stated)	–	inactive: 2.49%
O=C(CN1N=C(C(F)(F)F)CC1(O)c1ccc([N+](=O)[O-])cc1)c1ccccc1 (configuration not stated)	–	inactive: 11%
CCCN(CCC)CCCNC(=O)Cn1ncc2c3ccccc3n(Cc3ccccc3F)c2c1=O	inconclusive: 29.1 µM [activator, single point]	–
CC(=O)c1nn(-c2ccc(OC(F)(F)F)cc2)nc1Nc1ccccc1	inconclusive: 0.116 µM [activator, full curve, poor fit]	–
CCc1nn(CCCC(=O)NCc2ccc(C)cc2)c(=O)c2cc3occc3n12	inconclusive: 29.1 µM [falling, single point]	–
Cc1onc(-c2ccc(Cl)cc2)c1-c1ccnn1S(=O)(=O)c1cccc(C(F)(F)F)c1	inconclusive: 23.1 µM [falling, single point]	–
Cc1ccc(COc2ccc(/C=N/O)cc2)cc1	inconclusive: 20.6 µM [activator, partial curve]	–
Clc1ccc(N2CCN(c3ccnc(Cl)n3)CC2)cc1	active: 16.4 µM	–
CN(C)/C=C1/Oc2c(ccc3ccccc23)C1=O	inconclusive: 29.1 µM [falling, single point]	–
CCOc1nnc(C)c2c(C)n(-c3cccc(OC)c3)nc12	inconclusive: 6.51 µM [falling, single point]	–
COc1ccc2nc(NC(=O)c3cccc(OCc4c(C)noc4C)c3)sc2c1	inconclusive: 29.1 µM [falling, single point]	–
CCOC(=O)N1CCC(NC(=O)c2cnn(-c3ccc(C)cc3C)c2C2CCN(C(=O)OC(C)(C)C)CC2)CC1	inconclusive: 2.31 µM [activator, full curve, poor fit]	–
CCN1/C(=C/c2sc(-c3ccccc3C)c[n+]2C)Sc2ccccc21	active: 0.366 µM	–
CCOC(=O)N1CCN(C(=O)CSCc2ccccc2Cl)CC1	inconclusive: 4.11 µM [activator, partial curve]	–
O=C(/C=C/c1ccc(S(=O)(=O)N2CCOCC2)cc1)NCc1ccccc1F	inconclusive: 8.2 µM [falling, partial curve, poor fit]	–
Cc1nc(SCc2nc3ccc(Br)cc3[nH]2)c2oc3ccccc3c2n1	inconclusive: 29.1 µM [falling, single point]	–
CC(=O)Nc1cccc(Nc2nc3ccccc3n3c(C)nnc23)c1	inconclusive: 11.6 µM [falling, partial curve]	–
Clc1ccccc1CSc1cc2c(nn1)-c1ccccc1CC2	inconclusive: 6.51 µM [activator, partial curve]	–
CC(C)(C)c1ccc(Cc2n[nH]c(=S)[nH]c2=O)cc1	inconclusive: 7.31 µM [falling, partial curve]	–

Compound	Potency	activity change, negative = inhibition
Cc1ccc(S(=O)(=O)Nc2ccc3nc(C)sc3c2)c(C)c1	inconclusive: 7.31 µM [falling, partial curve]	–
COc1ccccc1NC(=O)C(C)Sc1nc(-c2ccccc2)cn1N (configuration not stated)	inconclusive: 18.4 µM [falling, partial curve, poor fit]	–
Cc1cnc(C(=O)Nc2ccc(OC(F)(F)F)cc2)cn1	–	inactive: -27.4%
CCOC(=O)C1CCCN(S(=O)(=O)c2cc(Br)cc3c2N(C(C)=O)CC3)C1 (configuration not stated)	inconclusive: 25.9 µM [activator, partial curve, poor fit]	–
COc1cc2c(cc1OC)CN(C(=O)c1ccc(N3CCCC3)c([N+](=O)[O-])c1)CC2	inconclusive: 20.6 µM [falling, partial curve]	–
COc1ccccc1NC(=O)c1ccc(-c2nn(C)c(=O)c3ccccc23)cc1	inconclusive: 25.9 µM [falling, single point]	–
Cn1ncc(Cl)c1C(=O)Nc1sc2c(c1C(N)=O)CCC2	inconclusive: 1.46 µM [activator, partial curve, poor fit]	–
O=S(=O)(c1ccc(NC(=S)NCCC(c2ccccc2)c2ccccc2)cc1)N1CCOCC1	active: 4.11 µM	–
COC(=O)c1ccc(NS(=O)(=O)c2ccc3[nH]c4c(c3c2)CCCC4)cc1	inconclusive: 25.9 µM [falling, partial curve, poor fit]	–
Cc1noc(/C=C/c2ccco2)c1S(=O)(=O)N1CCC(C(=O)Nc2ccc(Cl)cn2)CC1	inconclusive: 32.6 µM [falling, partial curve, poor fit]	–
COc1cccc(-n2nnnc2S(C)(=O)=O)c1	active: 10.3 µM	–
CCC(=O)N1CCc2cc(S(=O)(=O)NCCC(=O)NCc3ccc(C)cc3)ccc21	inconclusive: 16.4 µM [falling, single point]	–
CCCCn1c(N)c(-c2nc3ccccc3s2)c2c([N+](=O)[O-])nn(C)c(=O)c21	–	inactive: 10.4%
CCn1cc(Br)c(C(=O)Nc2nccs2)n1	inconclusive: 4.11 µM [activator, full curve, poor fit]	–
COc1ccccc1C(=O)OCc1cc(=O)n2nc(-c3cccs3)sc2n1	–	inactive: 15%
CCc1nnc(NC(=O)c2cccs2)s1	inconclusive: 20.6 µM [activator, single point]	–
O=[N+]([O-])c1ccc(N2CCCCC2)cc1SCCO	–	inactive: 4.76%
CN(C)c1ccc2c(c1)OC(N)=C(C#N)C2c1cccc(F)c1 (configuration not stated)	inconclusive: 10.3 µM [falling, partial curve, poor fit]	–
CC(=O)Nc1c(S(=O)(=O)c2ccccc2)c2nc3ccccc3nc2n1Cc1ccccc1	–	inactive: -26.1%
CCOC(=O)c1cc(C)nc(S(C)(=O)=O)c1C#N	inconclusive: 29.1 µM [falling, single point]	–
COc1ccc(OCCN2C(=O)c3ccccc3C2=O)c([N+](=O)[O-])c1	inconclusive: 7.31 µM [activator, partial curve]	–

Laid out differently: results already given.

| Compound | Potency | activity change, negative = inhibition |
| --- | --- | --- |
| Cc1ccc(S(=O)(=O)Nc2ccc3nc(C)sc3c2)c(C)c1 | inconclusive: 7.31 µM [falling, partial curve] | – |
| COc1ccccc1NC(=O)C(C)Sc1nc(-c2ccccc2)cn1N (configuration not stated) | inconclusive: 18.4 µM [falling, partial curve, poor fit] | – |
| Cc1cnc(C(=O)Nc2ccc(OC(F)(F)F)cc2)cn1 | – | inactive: -27.4% |
| CCOC(=O)C1CCCN(S(=O)(=O)c2cc(Br)cc3c2N(C(C)=O)CC3)C1 (configuration not stated) | inconclusive: 25.9 µM [activator, partial curve, poor fit] | – |
| COc1cc2c(cc1OC)CN(C(=O)c1ccc(N3CCCC3)c([N+](=O)[O-])c1)CC2 | inconclusive: 20.6 µM [falling, partial curve] | – |
| COc1ccccc1NC(=O)c1ccc(-c2nn(C)c(=O)c3ccccc23)cc1 | inconclusive: 25.9 µM [falling, single point] | – |
| Cn1ncc(Cl)c1C(=O)Nc1sc2c(c1C(N)=O)CCC2 | inconclusive: 1.46 µM [activator, partial curve, poor fit] | – |
| O=S(=O)(c1ccc(NC(=S)NCCC(c2ccccc2)c2ccccc2)cc1)N1CCOCC1 | active: 4.11 µM | – |
| COC(=O)c1ccc(NS(=O)(=O)c2ccc3[nH]c4c(c3c2)CCCC4)cc1 | inconclusive: 25.9 µM [falling, partial curve, poor fit] | – |
| Cc1noc(/C=C/c2ccco2)c1S(=O)(=O)N1CCC(C(=O)Nc2ccc(Cl)cn2)CC1 | inconclusive: 32.6 µM [falling, partial curve, poor fit] | – |
| COc1cccc(-n2nnnc2S(C)(=O)=O)c1 | active: 10.3 µM | – |
| CCC(=O)N1CCc2cc(S(=O)(=O)NCCC(=O)NCc3ccc(C)cc3)ccc21 | inconclusive: 16.4 µM [falling, single point] | – |
| CCCCn1c(N)c(-c2nc3ccccc3s2)c2c([N+](=O)[O-])nn(C)c(=O)c21 | – | inactive: 10.4% |
| CCn1cc(Br)c(C(=O)Nc2nccs2)n1 | inconclusive: 4.11 µM [activator, full curve, poor fit] | – |
| COc1ccccc1C(=O)OCc1cc(=O)n2nc(-c3cccs3)sc2n1 | – | inactive: 15% |
